Reference: the supplement of paper PMC4604168 (melanoma cell lines)
The list shows a part of the results. Many values rest on one well or one pass, so single values are uncertain.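 Imaging used 1,536-well plates; nuclei positive for cleaved PARP by antibody were divided by total DNA-stained nuclei to yield the apoptosis fraction. Doses for screening kept most cells viable, and cell lines differ markedly in resting and induced cleaved-PARP levels.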

How the values were obtained:
Assay in all cases: cleaved PARP positive nuclei fraction relative to DMSO control; melanoma cells; higher = more apoptosis
Settings in all cases: library dose: low library concentration; 72 h
MZ2-MEL = tested on: MZ2-MEL
MeWo = tested on: MeWo
RPMI7951 = tested on: RPMI7951
RVH-421 = tested on: RVH-421
SkMel28 = tested on: SkMel28
SkMel30 = tested on: SkMel30
SkMel5 = tested on: SkMel5
UACC257 = tested on: UACC257
UACC62 = tested on: UACC62

Row | SMILES | cleaved PARP positive nuclei fraction (MZ2-MEL) | cleaved PARP positive nuclei fraction (MeWo) | cleaved PARP positive nuclei fraction (RPMI7951) | cleaved PARP positive nuclei fraction (RVH-421) | cleaved PARP positive nuclei fraction (SkMel28) | cleaved PARP positive nuclei fraction (SkMel30) | cleaved PARP positive nuclei fraction (SkMel5) | cleaved PARP positive nuclei fraction (UACC257) | cleaved PARP positive nuclei fraction (UACC62)
1 | CN(NC(=O)CC(=O)NN(C)C(=S)c1ccccc1)C(=S)c1ccccc1 + Cc1cc([N+](=O)[O-])ccc1NS(=O)(=O)c1cc(Cl)ccc1Cl [FH535] (first compound 0.006 µM, partner dose 1 µM) | 53.4% | 47.2% | 74.2% | 52.4% | 153% | 26.2% | 91.3% | 108% | 86.2%
2 | O=c1cc(-c2cccc3c2Sc2ccccc2S3)oc(N2CCOCC2)c1 + CC(C)CCN1c2nc(Nc3cc(F)c(O)c(F)c3)ncc2N(C)C(=O)C1C [BID1870] (first compound 1 µM, partner dose 0.2 µM) | 152% | 170% | 170% | 107% | 47.3% | 37.8% | 61.1% | 62.7% | 139%
3 | COc1cc(N2CCC(N3CCN(C)CC3)CC2)ccc1Nc1ncc(Cl)c(Nc2ccccc2S(=O)(=O)C(C)C)n1 + O=c1cc(-c2cccc3c2Sc2ccccc2S3)oc(N2CCOCC2)c1 [KU55933] (first compound 0.08 µM, partner dose 1 µM) | 59.9% | 72.6% | 50.6% | 81.2% | 168% | 269% | 59.3% | 224% | 162%
4 | O=C(Nc1ccccc1)c1cc([N+](=O)[O-])ccc1Cl + COc1ccc2c(c1)CCC1C2CCC2(C)C(NCCCCCCN3C(=O)C=CC3=O)CCC12 [U73122] (first compound 2 µM, partner dose 0.4 µM) | 310% | 55.2% | 87.4% | 23.2% | 105% | 25.3% | 100% | 66.5% | 176%
5 | N#Cc1c(O)c2c(-c3ccc(-c4ccccc4O)cc3)csc2[nH]c1=O + COc1ccc2c(c1)CCC1C2CCC2(C)C(NCCCCCCN3C(=O)C=CC3=O)CCC12 [U73122] (first compound 2 µM, partner dose 0.4 µM) | 173% | 106% | 95.2% | 81.3% | 149% | 72% | 59.7% | 156% | 404%
6 | O=S(=O)(c1ccccc1)N(CC(F)(F)F)c1ccc(C(O)(C(F)(F)F)C(F)(F)F)cc1 + Cn1cc(/C=C2\C(=O)Nc3cccnc32)c2ccccc21 [GW441756] (first compound 1.4 µM, partner dose 0.4 µM) | 60% | 102% | 36.4% | 69.6% | 173% | 24.9% | 94.8% | 206% | 74.3%
7 | Oc1nc(-c2ccc(C(F)(F)F)cc2)nc2c1CSCC2 + COc1cc(N2CCC(N3CCN(C)CC3)CC2)ccc1Nc1ncc(Cl)c(Nc2ccccc2S(=O)(=O)C(C)C)n1 [NVP-TAE684] (first compound 2 µM, partner dose 0.08 µM) | 90.2% | 106% | 94.6% | 159% | 143% | 18.7% | 151% | 66.7% | 156%
8 | O=C(O)C(=O)Nc1sc2c(c1C(=O)O)CCNC2 + Oc1nc(-c2ccc(C(F)(F)F)cc2)nc2c1CSCC2 [XAV939] (first compound 1.66667 µM, partner dose 2 µM) | 142% | 53.5% | 135% | 129% | 130% | 583% | 91.8% | 298% | 40.9%
9 | COc1ccc(-c2ccc3c(N4CCOCC4)nc(N4C[C@@H](C)O[C@@H](C)C4)nc3n2)cc1CO + O=C(O)C(=O)Nc1sc2c(c1C(=O)O)CCNC2 [TCS401] (first compound 0.02 µM, partner dose 1.66667 µM) | 47.7% | 43.9% | 101% | 172% | 145% | 53.1% | 136% | 130% | 178%
10 | COC(=O)c1sccc1S(=O)(=O)Nc1ccc(Nc2ccccc2)cc1OC + COc1ccc(COc2ccc(Cc3cnc(N)nc3N)cc2OC)cc1 [GW2580] (first compound 1 µM, partner dose 1 µM) | 108% | 216% | 83.3% | 86.4% | 49.2% | 19.2% | 136% | 97.7% | 27%
11 | COc1ccc(-c2ccc3c(N4CCOCC4)nc(N4C[C@@H](C)O[C@@H](C)C4)nc3n2)cc1CO + CC(C)CCN1c2nc(Nc3cc(F)c(O)c(F)c3)ncc2N(C)C(=O)C1C [BID1870] (first compound 0.02 µM, partner dose 0.2 µM) | 29.2% | 186% | 16.7% | 56% | 169% | 222% | 65.7% | 260% | 165%
12 | CCCCCCCCCCCC1=C(O)C(=O)C=C(O)C1=O [Embelin] + CC(C)CCN1c2nc(Nc3cc(F)c(O)c(F)c3)ncc2N(C)C(=O)C1C [BID1870] (first compound 1.2 µM, partner dose 0.2 µM) | 118% | 25.1% | 35% | 24% | 81% | 13.2% | 68.5% | 94.8% | 151%
13 | O=C(O)c1ccc(-c2c[nH]c3ncc(-c4ccccc4)cc23)cc1C1CCCC1 + O=C1NC(=O)/C(=C/c2ccc(-c3ccc(F)cc3O)o2)S1 [AS252424] (first compound 0.16 µM, partner dose 1 µM) | 90.5% | 56% | 305% | 83.1% | 79.6% | 14.8% | 60.7% | 184% | 114%
14 | c1cc(-c2cnn3cc(-c4ccc(OCCN5CCCCC5)cc4)cnc23)ccn1 [Dorsomorphin] + Cn1cc(/C=C2\C(=O)Nc3cccnc32)c2ccccc21 [GW441756] (first compound 0.4 µM, partner dose 0.4 µM) | 75.9% | 129% | 144% | 127% | 107% | 53.5% | 87.5% | 248% | 85.7%
15 | O=C(Nc1ccccc1)c1cc([N+](=O)[O-])ccc1Cl + CCCCCCCCCCCC1=C(O)C(=O)C=C(O)C1=O [Embelin] (first compound 2 µM, partner dose 1.2 µM) | 304% | 49% | 33.9% | 45.6% | 125% | 91.2% | 58.8% | 101% | 84.9%
16 | COc1ccc(-c2ccc3c(N4CCOCC4)nc(N4C[C@@H](C)O[C@@H](C)C4)nc3n2)cc1CO + O=c1cc(-c2cccc3c2Sc2ccccc2S3)oc(N2CCOCC2)c1 [KU55933] (first compound 0.02 µM, partner dose 1 µM) | 158% | 58.6% | 75.5% | 83.9% | 162% | 49.6% | 38.5% | 120% | 100%
17 | CN(NC(=O)CC(=O)NN(C)C(=S)c1ccccc1)C(=S)c1ccccc1 + COC(=O)c1sccc1S(=O)(=O)Nc1ccc(Nc2ccccc2)cc1OC [GSK0660] (first compound 0.006 µM, partner dose 1 µM) | 89.5% | 180% | 79.7% | 35.3% | 116% | 125% | 402% | 159% | 35.9%
18 | O=C1NC(=O)/C(=C/c2ccc(-c3ccc(F)cc3O)o2)S1 + O=c1cc(-c2cccc3c2Sc2ccccc2S3)oc(N2CCOCC2)c1 [KU55933] (first compound 1 µM, partner dose 1 µM) | 71.5% | 108% | 80.1% | 214% | 119% | 196% | 102% | 67.6% | 108%
19 | O=C(O)c1ccc(-c2c[nH]c3ncc(-c4ccccc4)cc23)cc1C1CCCC1 + O=C(O)C(=O)Nc1sc2c(c1C(=O)O)CCNC2 [TCS401] (first compound 0.16 µM, partner dose 1.66667 µM) | 72.4% | 138% | 164% | 141% | 106% | 24.5% | 29.6% | 256% | 86.5%
20 | Oc1cc(-c2nc(-c3ccccc3)[nH]c2-c2ccncc2)ccc1Cl + CCCCCCCCCCCC1=C(O)C(=O)C=C(O)C1=O [Embelin] (first compound 0.2 µM, partner dose 1.2 µM) | 15.5% | 93.3% | 84.1% | 94% | 59.6% | 36.2% | 54.6% | 24.6% | 31%
21 | N#Cc1c(O)c2c(-c3ccc(-c4ccccc4O)cc3)csc2[nH]c1=O + O=C(O)C(=O)Nc1sc2c(c1C(=O)O)CCNC2 [TCS401] (first compound 2 µM, partner dose 1.66667 µM) | 186% | 42.7% | 37.2% | 107% | 25.2% | 28.9% | 25.2% | 58% | 93.7%
22 | CN(C)S(=O)(=O)c1ccc2c(c1)/C(=C/c1cc3c([nH]1)CCCC3)C(=O)N2 + COc1cc(N2CCC(N3CCN(C)CC3)CC2)ccc1Nc1ncc(Cl)c(Nc2ccccc2S(=O)(=O)C(C)C)n1 [NVP-TAE684] (first compound 0.4 µM, partner dose 0.08 µM) | 116% | 101% | 87.3% | 42.4% | 122% | 248% | 75.8% | 165% | 63.8%
23 | CN(NC(=O)CC(=O)NN(C)C(=S)c1ccccc1)C(=S)c1ccccc1 + COc1ccc(COc2ccc(Cc3cnc(N)nc3N)cc2OC)cc1 [GW2580] (first compound 0.006 µM, partner dose 1 µM) | 56.7% | 386% | 78.6% | 76.1% | 161% | 66.2% | 128% | 65% | 96.9%
24 | CN(NC(=O)CC(=O)NN(C)C(=S)c1ccccc1)C(=S)c1ccccc1 + O=C(Nc1ccccc1)c1cc([N+](=O)[O-])ccc1Cl [GW9662] (first compound 0.006 µM, partner dose 2 µM) | 82.5% | 403% | 87.8% | 76.4% | 107% | 50.7% | 110% | 63.1% | 277%
25 | CN(C)S(=O)(=O)c1ccc2c(c1)/C(=C/c1cc3c([nH]1)CCCC3)C(=O)N2 + O=C1NC(=O)/C(=C/c2ccc(-c3ccc(F)cc3O)o2)S1 [AS252424] (first compound 0.4 µM, partner dose 1 µM) | 81.3% | 183% | 146% | 53.3% | 122% | 270% | 136% | 106% | 223%

Some values from the entries so far:
cleaved PARP positive nuclei fraction (RVH-421), O=C(O)c1ccc(-c2c[nH]c3ncc(-c4ccccc4)cc23)cc1C1CCCC1 + O=C(O)C(=O)Nc1sc2c(c1C(=O)O)CCNC2 [TCS401] (first compound 0.16 µM, partner dose 1.66667 µM) reads 141%
cleaved PARP positive nuclei fraction (RVH-421), CCCCCCCCCCCC1=C(O)C(=O)C=C(O)C1=O [Embelin] + CC(C)CCN1c2nc(Nc3cc(F)c(O)c(F)c3)ncc2N(C)C(=O)C1C [BID1870] (first compound 1.2 µM, partner dose 0.2 µM) reads 24%
